Measured values: PMC4237420
Results are given in words; binding and its absence hold for the method and conditions named. In cells and extracts the contact can be indirect.

The chains behind the UniProt entries cited, without tags or fusion partners.
UniProt P29311: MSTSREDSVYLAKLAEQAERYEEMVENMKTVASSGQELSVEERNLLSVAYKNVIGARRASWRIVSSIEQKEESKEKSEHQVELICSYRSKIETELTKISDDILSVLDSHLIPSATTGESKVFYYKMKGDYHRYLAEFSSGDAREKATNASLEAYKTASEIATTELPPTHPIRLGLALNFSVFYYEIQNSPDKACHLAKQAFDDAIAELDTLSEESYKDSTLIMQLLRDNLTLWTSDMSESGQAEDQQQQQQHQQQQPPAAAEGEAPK
UniProt P34730: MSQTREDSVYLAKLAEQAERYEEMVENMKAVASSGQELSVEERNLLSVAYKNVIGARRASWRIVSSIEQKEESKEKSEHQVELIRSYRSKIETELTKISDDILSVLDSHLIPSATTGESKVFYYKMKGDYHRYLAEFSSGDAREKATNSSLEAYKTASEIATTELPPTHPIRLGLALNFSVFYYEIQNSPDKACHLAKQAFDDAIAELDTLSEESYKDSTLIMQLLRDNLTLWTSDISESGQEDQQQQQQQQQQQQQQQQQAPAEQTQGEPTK

Molecular target: T1, SBP-Sps1-T12A (S. cerevisiae) (UniProt P08458)
T1 sequence: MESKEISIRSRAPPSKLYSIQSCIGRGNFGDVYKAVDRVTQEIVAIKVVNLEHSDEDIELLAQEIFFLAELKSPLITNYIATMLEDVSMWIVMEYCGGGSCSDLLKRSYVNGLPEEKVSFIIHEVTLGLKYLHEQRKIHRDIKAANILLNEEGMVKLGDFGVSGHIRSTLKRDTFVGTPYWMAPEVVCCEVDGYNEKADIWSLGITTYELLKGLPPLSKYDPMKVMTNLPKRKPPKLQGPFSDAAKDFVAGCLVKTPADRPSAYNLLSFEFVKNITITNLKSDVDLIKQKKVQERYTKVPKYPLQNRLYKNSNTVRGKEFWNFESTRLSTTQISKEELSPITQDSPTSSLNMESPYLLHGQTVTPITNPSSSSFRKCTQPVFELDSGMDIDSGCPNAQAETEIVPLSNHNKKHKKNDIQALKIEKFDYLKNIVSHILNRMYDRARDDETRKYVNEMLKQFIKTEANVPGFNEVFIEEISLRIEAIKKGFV
Experiment: co-IP; SBP-tagged Sps1 captured from log-phase yeast lysates on Streptavidin Plus Ultralink Resin in IP buffer (329.2 mM NaCl, 0.0823 mM EDTA, 16.46 mM HEPES, 1.2345 mM MgCl2, 0.823% Nonidet P-40, protease and phosphatase inhibitors), washed 4 times, eluted with biotin; immunoblot with anti-Bmh antibody

Row | Substance | binding
1 | Bmh1 (from UniProt P29311 1-267) | no binding
2 | Bmh2 (from UniProt P34730 1-273) | no binding
